Results as given in patent publication US20170189504A1, “NOVEL PEPTIDES AND COMBINATION OF PEPTIDES FOR USE IN IMMUNOTHERAPY AGAINST VARIOUS CANCERS” (immatics biotechnologies GmbH, priority 2015, published 2017).
For some of these results: Expression values are those of the mRNA of the gene that encodes the peptide; a gene is named only where it was looked up.

Legend:
HLA-A*02 = test: Identification and relative LC-MS quantitation of HLA-A*02-presented tumor-associated peptides on tissue samples (presentation profiles, Tables 13A, 13B, 15, FIG. 1); design: species or system human; key to Presentation score NHL / Presentation score CLL / Presentation score BRCA / Presentation score AML / Presentation score GB / Presentation score NSCLC / Presentation score GBC_CCC / Presentation score UEC / Presentation score MEL / Presentation score OSCAR / Presentation score GC / Presentation score UBC / Presentation score OC / Presentation score RCC / Presentation score CRC / Presentation score PCA / Presentation score HCC / Presentation score PC / Presentation score SCLC: specifically presented on tumors (++++); very highly over-presented on tumors compared to a panel of normal tissues (+++); highly over-presented on tumors compared to a panel of normal tissues (++); over-presented on tumors compared to a panel of normal tissues (+); conditions: for Peptide Presentation on cancer entities: HLA-A*02-binding tumor-associated peptides
source genes (mRNA) [1] = test: Expression profiling of source genes by in-house RNASeq of tumor and normal tissues (Table 18, FIG. 2); design: species or system human; key: very highly over-expressed in tumors compared to a panel of normal tissues (+++); highly over-expressed in tumors compared to a panel of normal tissues (++); over-expressed in tumors compared to a panel of normal tissues (+); conditions: source gene of peptide; for Expression score AML: acute myeloid leukemia (N = 11) vs panel of normal tissues; for Expression score NSCLC: non-small cell lung cancer (N = 11) vs panel of normal tissues; for Expression score SCLC: small cell lung cancer (N = 10) vs panel of normal tissues; for Expression score GC: gastric cancer (N = 11) vs panel of normal tissues; for Expression score GB: glioblastoma (N = 24) vs panel of normal tissues; for Expression score NHL: non-Hodgkin lymphoma (N = 10) vs panel of normal tissues; for Expression score OC: ovarian cancer (N = 12) vs panel of normal tissues; for Expression score UEC: uterine cancer (N = 10) vs panel of normal tissues
source genes (mRNA) [2] = test: Gene and exon expression of source genes, TCGA tumor samples compared with normal tissue samples (Lonsdale, 2013) (Table 17); design: species or system human; conditions: for Over-expression category of source gene (target coverage), BRCA: BRCA = Breast cancer (N = 1104), tumors more than 2-fold above highest 75% percentile of normal tissues; for Over-expression category of source gene (target coverage), DLBC: DLBC = Lymphoid neoplasm diffuse large B-cell lymphoma (N = 48); for Over-expression category of source gene (target coverage), ESCA: ESCA = Esophageal cancer (N = 185); for Over-expression category of source gene (target coverage), LAML: LAML = Acute Myeloid Leukemia (N = 173); for Over-expression category of source gene (target coverage), LGG: LGG = Lower grade glioma (N = 534); for Over-expression category of source gene (target coverage), SKCM: SKCM = Skin cutaneous melanoma (N = 473); for Over-expression category of source gene (target coverage), STAD: STAD = Stomach adenocarcinoma (N = 415); for Over-expression category of source gene (target coverage), COAD: COAD = Colon and rectal adenocarcinoma (N = 462); for Over-expression category of source gene (target coverage), GBM: GBM = Glioblastoma multiforme (N = 169); for Over-expression category of source gene (target coverage), OV: OV = Ovarian serous cystadenocarcinoma (N = 309); for Over-expression category of source gene (target coverage), READ: READ = Colon and rectal adenocarcinoma (N = 167); for Over-expression category of source gene (target coverage), UCEC: UCEC = Uterine corpus endometrial carcinoma (N = 546)
[3] = Table 13A, cancer entities on which the peptide was found presented
[4] = Table 13B, presentation on additional cancer entities

| Substance | Peptide Presentation on cancer entities (HLA-A*02; [3]) | Peptide Presentation on cancer entities (HLA-A*02; [4]) | Expression score AML (source genes (mRNA) [1]) | Expression score NSCLC (source genes (mRNA) [1]) | Expression score SCLC (source genes (mRNA) [1]) | Over-expression category of source gene (target coverage), BRCA (source genes (mRNA) [2]) | Over-expression category of source gene (target coverage), DLBC (source genes (mRNA) [2]; same cutoff) | Over-expression category of source gene (target coverage), ESCA (source genes (mRNA) [2]; same cutoff) | Over-expression category of source gene (target coverage), LAML (source genes (mRNA) [2]; same cutoff) | Over-expression category of source gene (target coverage), LGG (source genes (mRNA) [2]; same cutoff) | Over-expression category of source gene (target coverage), SKCM (source genes (mRNA) [2]; same cutoff) | Over-expression category of source gene (target coverage), STAD (source genes (mRNA) [2]; same cutoff) | Expression score GC (source genes (mRNA) [1]) | Expression score GB (source genes (mRNA) [1]) | Expression score NHL (source genes (mRNA) [1]) | Expression score OC (source genes (mRNA) [1]) | Expression score UEC (source genes (mRNA) [1]) | Over-expression category of source gene (target coverage), COAD (source genes (mRNA) [2]; same cutoff) | Over-expression category of source gene (target coverage), GBM (source genes (mRNA) [2]; same cutoff) | Over-expression category of source gene (target coverage), OV (source genes (mRNA) [2]; same cutoff) | also measured |
| --- | --- | --- | --- | --- | --- | --- | --- | --- | --- | --- | --- | --- | --- | --- | --- | --- | --- | --- | --- | --- | --- |
| 253: peptide found in SMCHD1 (gene looked up) (ALAELIDNSL; listed as Homo sapiens) [compound 253] | CLL | NSCLC, AML | + | + | ++ | C (>=5% of tumors above the cutoff, but <20%) | C (>=5% of tumors above the cutoff, but <20%) | B (>= 20% of tumors above the cutoff, but <50%) | A (>=50% of tumors above the cutoff) | C (>=5% of tumors above the cutoff, but <20%) | C (>=5% of tumors above the cutoff, but <20%) | B (>= 20% of tumors above the cutoff, but <50%) |  |  |  |  |  |  |  |  | Presentation score CLL (HLA-A*02; HLA-A*02 peptides, chronic lymphocytic leukemia (N = 17) vs panel of normal tissues (N = 262)): ++++; Expression score CLL (source genes (mRNA) [1]; chronic lymphocytic leukemia (N = 10) vs panel of normal tissues): +++; Expression score GBC_CCC (source genes (mRNA) [1]; gallbladder adenocarcinoma and cholangiocarcinoma (N = 3) vs panel of normal tissues): +; Over-expression category of source gene (target coverage), PRAD (source genes (mRNA) [2]; PRAD = Prostate adenocarcinoma (N = 498), same cutoff): C (>=5% of tumors above the cutoff, but <20%) |
| 254: peptide found in PFAS (gene looked up) (KLQGKLPEL; listed as Homo sapiens) [compound 254] | NSCLC, NHL | UEC, AML | + | + | + |  | B (>= 20% of tumors above the cutoff, but <50%) | C (>=5% of tumors above the cutoff, but <20%) | A (>=50% of tumors above the cutoff) | C (>=5% of tumors above the cutoff, but <20%) | B (>= 20% of tumors above the cutoff, but <50%) | C (>=5% of tumors above the cutoff, but <20%) | + | + | ++ | + | + | C (>=5% of tumors above the cutoff, but <20%) | C (>=5% of tumors above the cutoff, but <20%) | C (>=5% of tumors above the cutoff, but <20%) | Presentation score NHL (HLA-A*02; HLA-A*02 peptides, non-Hodgkin lymphoma (N = 18) vs panel of normal tissues (N = 262)): ++++; Presentation score NSCLC (HLA-A*02; HLA-A*02 peptides, non-small cell lung cancer (N = 90) vs panel of normal tissues (N = 262)): ++++; Over-expression category of source gene (target coverage), KIRP (source genes (mRNA) [2]; KIRP = Papillary kidney carcinoma (N = 291), same cutoff): C (>=5% of tumors above the cutoff, but <20%); Over-expression category of source gene (target coverage), READ (source genes (mRNA) [2]; same cutoff): C (>=5% of tumors above the cutoff, but <20%); Over-expression category of source gene (target coverage), UCEC (source genes (mRNA) [2]; same cutoff): B (>= 20% of tumors above the cutoff, but <50%) |
| 290: peptide found in BUB1B (gene looked up) (KIVDFSYSV; listed as Homo sapiens) [compound 290] | GB, GC, NSCLC, HCC, OSCAR, OC, SCLC, UBC, UEC, BRCA, MEL, CRC, AML, NHL |  | + | + | +++ | A (>=50% of tumors above the cutoff) | A (>=50% of tumors above the cutoff) | A (>=50% of tumors above the cutoff) | A (>=50% of tumors above the cutoff) | C (>=5% of tumors above the cutoff, but <20%) | A (>=50% of tumors above the cutoff) | A (>=50% of tumors above the cutoff) | + | + | +++ | ++ | + | A (>=50% of tumors above the cutoff) | B (>= 20% of tumors above the cutoff, but <50%) | A (>=50% of tumors above the cutoff) | Presentation score BRCA (HLA-A*02; HLA-A*02 peptides, breast cancer (N = 17) vs panel of normal tissues (N = 262)): ++; Presentation score MEL (HLA-A*02; HLA-A*02 peptides, melanoma (N = 7) vs panel of normal tissues (N = 262)): ++; Expression score BRCA (source genes (mRNA) [1]; BRCA tumors vs panel of normal tissues): +; Expression score CRC (source genes (mRNA) [1]; colorectal cancer (N = 20) vs panel of normal tissues): +; Expression score OSCAR (source genes (mRNA) [1]; esophageal cancer incl. gastric-esophageal junction (N = 11) vs panel of normal tissues): ++; Expression score UBC (source genes (mRNA) [1]; urinary bladder cancer (N = 10) vs panel of normal tissues): +; Over-expression category of source gene (target coverage), BLCA (source genes (mRNA) [2]; BLCA = Bladder urothelial carcinoma (N = 408), same cutoff): A (>=50% of tumors above the cutoff); Over-expression category of source gene (target coverage), CHOL (source genes (mRNA) [2]; CHOL = Cholangiocarcinoma (N = 36), same cutoff): B (>= 20% of tumors above the cutoff, but <50%); Over-expression category of source gene (target coverage), LIHC (source genes (mRNA) [2]; LIHC = Liver hepatocellular carcinoma (N = 374), same cutoff): C (>=5% of tumors above the cutoff, but <20%); Over-expression category of source gene (target coverage), LUAD (source genes (mRNA) [2]; LUAD = Lung adenocarcinoma (N = 517), same cutoff): B (>= 20% of tumors above the cutoff, but <50%); Over-expression category of source gene (target coverage), LUSC (source genes (mRNA) [2]; LUSC = Lung squamous cell carcinoma (N = 503), same cutoff): A (>=50% of tumors above the cutoff); Over-expression category of source gene (target coverage), PAAD (source genes (mRNA) [2]; PAAD = Pancreatic ductal adenocarcinoma (N = 179), same cutoff): C (>=5% of tumors above the cutoff, but <20%); Over-expression category of source gene (target coverage), READ (source genes (mRNA) [2]; same cutoff): A (>=50% of tumors above the cutoff); Over-expression category of source gene (target coverage), UCEC (source genes (mRNA) [2]; same cutoff): A (>=50% of tumors above the cutoff) |
